{
  "sequences": {"note": "Protein sequences, listed by entry. Tags and fused reporters are not part of them. Lines headed by an entry give the natural chain unless they say otherwise; changes in a name come on top.", "UniProt P17676": "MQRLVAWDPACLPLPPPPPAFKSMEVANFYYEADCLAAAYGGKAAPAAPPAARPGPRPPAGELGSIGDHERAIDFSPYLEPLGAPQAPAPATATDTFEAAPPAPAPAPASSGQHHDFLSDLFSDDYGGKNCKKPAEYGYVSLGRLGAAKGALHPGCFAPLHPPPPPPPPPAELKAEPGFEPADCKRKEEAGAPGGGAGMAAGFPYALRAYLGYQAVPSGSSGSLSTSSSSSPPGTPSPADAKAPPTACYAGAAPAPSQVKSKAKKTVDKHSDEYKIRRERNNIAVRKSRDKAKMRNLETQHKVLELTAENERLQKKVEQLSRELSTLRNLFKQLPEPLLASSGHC", "UniProt P31260, whole entry": "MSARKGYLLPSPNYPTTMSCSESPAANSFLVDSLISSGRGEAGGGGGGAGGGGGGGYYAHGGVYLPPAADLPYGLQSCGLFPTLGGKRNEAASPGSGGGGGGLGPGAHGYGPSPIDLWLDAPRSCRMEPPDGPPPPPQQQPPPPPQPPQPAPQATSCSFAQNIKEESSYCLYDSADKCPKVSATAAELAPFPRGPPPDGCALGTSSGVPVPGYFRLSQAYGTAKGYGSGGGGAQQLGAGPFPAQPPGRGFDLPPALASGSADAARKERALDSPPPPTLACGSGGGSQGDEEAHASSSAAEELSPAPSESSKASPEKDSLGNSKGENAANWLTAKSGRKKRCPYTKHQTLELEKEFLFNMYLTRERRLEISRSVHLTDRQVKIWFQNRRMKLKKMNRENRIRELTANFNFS"},
  "source": "paper PMC10351137",
  "key": {"CEBPB-DDK": {"molecular_target": "CEBPB-DDK (UniProt P17676)", "assay": "EMSA, anti-DDK supershift", "details": "decidualized hESF nuclear extract; 6 ug nuclear extract plus TF lysate, 50-100 fmol probe, LI-COR binding buffer (composition and pH not given), 1 ug poly(dI-dC), about 2% glycerol; protein in a lysate after overexpression; protein details: DDK; label: 5' IRD700"}, "HOXA10-DDK": {"molecular_target": "HOXA10-DDK (UniProt P31260)", "assay": "EMSA, anti-DDK supershift", "details": "decidualized hESF nuclear extract; 6 ug nuclear extract plus TF lysate, 50-100 fmol probe, LI-COR binding buffer (composition and pH not given), 1 ug poly(dI-dC), about 2% glycerol; protein in a lysate after overexpression; protein details: DDK; label: 5' IRD700"}},
  "note": "For at least one entry, the source does not settle the construct or the ends of the probe. At least one result comes from cells or an extract, where the contact may be indirect. Weaker means in comparison with the reference protein, sequence or condition of that experiment.",
  "data": [
    {"sequence": "AACCCAAAAGCAAATGCAACAAAAACAAAGATAAATAGC (double strand) [rs7889204 C (non-reference, risk) probe]", "values": [
      {"measurement": "binding result", "setting": "CEBPB-DDK", "value": "binds more weakly"},
      {"measurement": "binding result", "setting": "HOXA10-DDK", "value": "binds more weakly"}
    ]},
    {"sequence": "AACCCAAAAGCAAATGCAATAAAAACAAAGATAAATAGC (double strand) [rs7889204 T (reference, non-risk) probe]", "values": [
      {"measurement": "binding result", "setting": "CEBPB-DDK", "value": "binds"},
      {"measurement": "binding result", "setting": "HOXA10-DDK", "value": "binds"}
    ]}
  ]
}
